Reference: PubChem BioAssay AID493014 (National Center for Advancing Translational Sciences (NCATS), 2011)
Screen size: about 340,000 compounds; about 170 (0.05%) were called active. The shares of active, inactive and inconclusive entries below differ from those in the screen. Calls follow the shape of the dose curve; as a rule, active = well fitted inhibition curve with a large enough effect in the signal ratio, with a control signal flat (not every such curve was filed as active); inconclusive = small, poorly fitted or top-dose-only effect, or effect the other way, or a change in a side signal; inactive = flat fitted curve, though single readings scatter; the % refers to the signal ratio. Where the call is inconclusive, the potency comes from a doubtful curve fit.

Assay: qHTS Assay to Find Inhibitors of Chronic Active B-Cell Receptor Signaling;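 as to activity change, negative = inhibition: plate controls were basal doxycycline-induced cells for no effect and cells given 10 µM MG132 for full effect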
Conditions: ABC-DLBCL IkBa-CBG/CBR reporter, luminescence ratio (green luciferase fused to IkBa over red control in TMD8 lymphoma cells), 4 h; activity change, negative = inhibition: at 46.1 µM (top of the series)
Outline: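 TMD8 ABC-DLBCL cells carrying doxycycline-inducible green luciferase fused to IkappaBalpha plus unfused red luciferase were exposed to compounds (up to 46 uM) for 4 hrs at 37C. Activity came from the overlap-corrected green/red luminescence ratio.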
Potency is read from the fitted curve at half-maximal effect.

Row | SMILES | Potency | activity change, negative = inhibition
1 | CCCCOc1ccccc1NC(=O)Cn1c(-c2nonc2N)nc2ccccc21 | inconclusive: 0.731 µM [falling, full curve, poor fit] | 
2 | O=C(NCC1CCCCC1)C1(CC2CC(c3ccc(Cl)cc3)=NO2)CCNCC1 (stereo unspecified) |  | inconclusive: -17.7%
3 | CCCCOc1ccc(-c2ncc([N+](=O)[O-])cn2)cc1 |  | inconclusive: 12.9%
4 | CCc1cccc(CC)c1NC(=S)NCC(c1cccnc1)N(C)C (stereo unspecified) | inconclusive: 3.55 µM [falling, full curve, poor fit] | 
5 | O=C(CCCc1ccccc1)c1ccccc1 |  | inconclusive: 9.52%
6 | O=C(NCc1cccc(Cl)c1)NCc1cccc(Cl)c1 |  | inconclusive: 5.42%
7 | CCCn1nc(NC(=O)C2CCCO2)c2cc3ccc(C)cc3nc21 (stereo unspecified) |  | inactive: 16%
8 | CCC(C)(C)c1ccc(OCCCC[n+]2cccc(C)c2C)c(C(C)(C)CC)c1 |  | inconclusive: -1.07%
9 | CCN1C(=S)N[C@@H](c2cccc(F)c2)C(C(=O)OC)=C1C | inconclusive: 35.5 µM [falling, partial curve, poor fit] | 
10 | CC(=O)NC/C(C)=N\Nc1ccc([N+](=O)[O-])cc1 |  | inconclusive: 1.12%
11 | CCOC(=O)NCc1ccc2[nH]c(C)cc2c1 | inconclusive: 7.94 µM [rising, partial curve, poor fit] | 
12 | Cc1cc(C)c(C#N)c(Nc2ccc3c(c2)OCCO3)n1 | inconclusive: 2.31 µM [rising, partial curve, poor fit] | 
13 | COc1cccc(/C=N/NC(=O)c2cnccn2)c1O | inconclusive: 31.6 µM [falling, single point] | 
14 | CC(C)(C)OC(=O)C[C@@H]1C/C=C\C[C@@H](CC(=O)N[C@H](CO)Cc2ccccc2)C(=O)NC[C@@H](c2ccccc2)OC1=O |  | inactive: 1.85%
15 | C=CCOc1cccc(C(=O)N2CCCC(CNS(=O)(=O)c3cccs3)C2)c1 (stereo unspecified) |  | inconclusive: 7.33%
16 | COc1ccc(C(=O)C2CCCN(C(=O)C3=CCCC3)C2)c(C)c1 (stereo unspecified) |  | inactive: -5.3%
17 | CCCCNC(=S)N1CCC(Cc2ccccc2)CC1 |  | inactive: -0.783%
18 | Cc1ccc(C(=O)Nc2nc(-c3ccccc3)c(-c3ccccc3)o2)cc1 |  | inconclusive: 3.39%
19 | COc1ccc(C[C@H]2CN3C(=NC[C@H]3Cc3ccccc3)N2CCNC(=O)c2ccc(C)c(Br)c2)cc1 |  | inconclusive: -4.71%
20 | CCOc1ncccc1C(=O)OCc1cc(=O)oc2c(C)c(C)ccc12 |  | inconclusive: -15.5%
21 | Cc1cc(OCc2cccc(S(=O)(=O)N3CCOCC3)c2)ccc1Cl |  | inactive: -8.94%

Row | SMILES | Potency | activity change, negative = inhibition
22 | COc1ccc(C(=O)COC(=O)C2CCN(c3ccc(C(F)(F)F)cn3)CC2)c(OC)c1 |  | inconclusive: 1.76%
23 | COc1ccc2nc(COC(=O)c3cccs3)c(C(C)=O)[n+]([O-])c2c1 |  | inactive: -0.0154%
24 | CCO/C=C1\C(=O)N(c2ccc(OCC)cc2)C(=O)c2ccccc21 |  | inconclusive: 13.8%
25 | CCCc1cc(=O)n2[nH]c(-c3cc(OC)c(OC)c(OC)c3)nc2n1 |  | inconclusive: -3.76%
26 | Cc1nn(CCC#N)c(N)c1C1(O)C(=O)Nc2c(Cl)cc(Cl)cc21 (stereo unspecified) | inconclusive: 12.6 µM [falling, single point] | 
27 | COc1cccc(CCNc2ncnc3c2nnn3C)c1 |  | inconclusive: 9.13%
28 | COc1ccc2c(c1)OC[C@H]1[C@H]2N2C(=O)c3cc(OC)ccc3NC(=O)[C@@]2(C)[C@H]1c1ccccc1 |  | inconclusive: 10%
29 | CC(C)CC(=O)NC(=S)N(Cc1ccccc1)Cc1ccccc1 |  | inactive: -8.42%
30 | O=C(COC(=O)c1cccc(NS(=O)(=O)c2ccc(F)c(F)c2)c1)NC(=O)NC1CCCCC1 |  | inconclusive: -15.2%
31 | CSc1ncc2ncn(C3OC(CO)C(O)C3O)c2n1 (stereo unspecified) |  | inconclusive: 25.2%
32 | O=C(NCc1ccc2c(c1)OCO2)c1nn(-c2ccccc2)c(=O)c2ccccc12 |  | inconclusive: 6.42%
33 | CCOC(=O)c1c(C)nc(C)c(C(=O)OCC)c1-c1ccc(OC)cc1 |  | inconclusive: 0.356%
34 | N#CC1=C(Nc2ccccc2)SC=C(c2ccc(F)cc2)N=C1N1CCOCC1 |  | inconclusive: 2.51%
35 | Cc1cc2oc(C(=O)Nc3c(C)n(C)n(-c4ccccc4)c3=O)c(C)c2cc1Cl |  | inconclusive: 0.791%
36 | Cc1ccc(Nc2ccc(NCc3ccccc3)nn2)cc1C |  | inactive: 7.22%
37 | COc1cccc(Nc2nc(-c3sc(NC(=O)c4ccco4)nc3C)cs2)c1 |  | inconclusive: -24.5%
38 | O=C(Cc1csc(N2CCOCC2)n1)N/N=C/c1ccc(Cl)cc1Cl | inconclusive: 20.6 µM [activator, partial curve, poor fit] | 
39 | COc1ccc2sc(N3C(=O)C4CC=C(C)CC4C3=O)nc2c1 (stereo unspecified) | inconclusive: 8.2 µM [falling, partial curve, poor fit] | 
40 | Cc1ccc(NC(=O)C/C(N)=N/OC(=O)Nc2cccc(Cl)c2)cc1 |  | inconclusive: 4.79%
41 | COc1ccc(NC(=O)CNS(=O)(=O)c2cccs2)cc1 |  | inconclusive: 8.84%
42 | c1coc(C2Nc3ccccc3-c3nc4ccccc4n32)c1 (stereo unspecified) | inconclusive: 11.6 µM [rising, partial curve, poor fit] | 

Row | SMILES | Potency | activity change, negative = inhibition
43 | Cn1c(=O)c([N+](=O)[O-])c(-n2ccnc2)c2ccccc21 |  | inconclusive: 25.8%
44 | Cc1noc(C)c1COC(=O)c1ccc2c(c1)S(=O)(=O)c1ccccc1C2=O |  | inconclusive: -5.9%
45 | COc1cc(NC(=S)NC2CC(C)(C)NC(C)(C)C2)c(OC)cc1Cl |  | inconclusive: -12.1%
46 | CC1CCN(CCCNC(=O)C2CCN(S(=O)(=O)N3CCC4(CC3)OCCO4)CC2)CC1 |  | inactive: 4.22%
47 | Clc1ccc(-c2nnc(CSc3nnc(-c4cccs4)n3Cc3ccccc3)o2)cc1 |  | inconclusive: -16.7%
48 | O=[N+]([O-])c1ccc(Cc2nnc(-c3ccc(F)cc3)o2)cc1 | inconclusive: 3.16 µM [falling, partial curve, poor fit] | 
49 | COC(=O)c1ccc(NC(=O)CN(c2ccc3c(c2)OCO3)S(C)(=O)=O)cc1 |  | inconclusive: -6.73%
50 | CCc1ccc(-c2cc(C)no2)cc1S(=O)(=O)N1CCN(c2ccc(C(C)=O)cc2)CC1 |  | inactive: 9.51%
51 | Cc1nn(C)c(Nc2ccc(Br)cc2)c1Br |  | inactive: 0.592%
52 | CC1(C)COC(c2cccn2Cc2ccc(F)cc2Cl)=N1 |  | inconclusive: 3.22%
53 | COc1ccc(/C(O)=C/C(=O)C(=O)NNC(=O)c2ccccc2)cc1 |  | inconclusive: -24.9%
54 | CC(=O)Nc1ccc(C(=O)OCC(=O)N2CCCC2)cc1 |  | inconclusive: 9.35%
55 | O=C(N/N=C/c1c[nH]c2ccc(Br)cc12)c1ccncc1 | inconclusive: 32.6 µM [falling, single point] | 
56 | COc1ccc(CN2C(=O)c3ccccc3C(/C=N\OCc3ccc(C)cc3)C2=O)cc1 (stereo unspecified) |  | inconclusive: 16.6%
57 | COc1cc(OC)cc(C(=O)N2CCN(C(=O)c3ccc(OC)c(OC)c3)CC2)c1 |  | inactive: 9.39%
58 | COc1ccc(-c2nc(CS(=O)(=O)CC(=O)NCCc3ccccc3)c(C)o2)cc1 |  | inconclusive: 8.18%
59 | O=C(Cc1cccs1)NNC(=S)NCc1ccco1 |  | inactive: -2.24%
60 | O=C(O)c1ccc(NCc2ccncc2)cc1 |  | inactive: 0.919%
61 | [O-][n+]1c2ccccc2cc2ccccc21 | inconclusive: 20.6 µM [falling, partial curve] | 
62 | CS(=O)(=O)c1cccc(C(=O)OCC(=O)Nc2ccc3c(c2)OCO3)c1 |  | inconclusive: -6.13%
63 | Cc1ccc(S(=O)(=O)N2CCCC2CNC(=O)C(=O)Nc2ccc(F)cc2)cc1 (stereo unspecified) | inconclusive: 5.17 µM [falling, partial curve] | 

Some of the entries so far, comma-delimited.
Row,SMILES,Potency,"activity change, negative = inhibition"
40,Cc1ccc(NC(=O)C/C(N)=N/OC(=O)Nc2cccc(Cl)c2)cc1,,inconclusive: 4.79%
41,COc1ccc(NC(=O)CNS(=O)(=O)c2cccs2)cc1,,inconclusive: 8.84%
42,c1coc(C2Nc3ccccc3-c3nc4ccccc4n32)c1 (stereo unspecified),"inconclusive: 11.6 µM [rising, partial curve, poor fit]",
43,Cn1c(=O)c([N+](=O)[O-])c(-n2ccnc2)c2ccccc21,,inconclusive: 25.8%
44,Cc1noc(C)c1COC(=O)c1ccc2c(c1)S(=O)(=O)c1ccccc1C2=O,,inconclusive: -5.9%
45,COc1cc(NC(=S)NC2CC(C)(C)NC(C)(C)C2)c(OC)cc1Cl,,inconclusive: -12.1%
46,CC1CCN(CCCNC(=O)C2CCN(S(=O)(=O)N3CCC4(CC3)OCCO4)CC2)CC1,,inactive: 4.22%
47,Clc1ccc(-c2nnc(CSc3nnc(-c4cccs4)n3Cc3ccccc3)o2)cc1,,inconclusive: -16.7%
48,O=[N+]([O-])c1ccc(Cc2nnc(-c3ccc(F)cc3)o2)cc1,"inconclusive: 3.16 µM [falling, partial curve, poor fit]",
49,COC(=O)c1ccc(NC(=O)CN(c2ccc3c(c2)OCO3)S(C)(=O)=O)cc1,,inconclusive: -6.73%
50,CCc1ccc(-c2cc(C)no2)cc1S(=O)(=O)N1CCN(c2ccc(C(C)=O)cc2)CC1,,inactive: 9.51%
51,Cc1nn(C)c(Nc2ccc(Br)cc2)c1Br,,inactive: 0.592%
52,CC1(C)COC(c2cccn2Cc2ccc(F)cc2Cl)=N1,,inconclusive: 3.22%
53,COc1ccc(/C(O)=C/C(=O)C(=O)NNC(=O)c2ccccc2)cc1,,inconclusive: -24.9%
54,CC(=O)Nc1ccc(C(=O)OCC(=O)N2CCCC2)cc1,,inconclusive: 9.35%
55,O=C(N/N=C/c1c[nH]c2ccc(Br)cc12)c1ccncc1,"inconclusive: 32.6 µM [falling, single point]",
56,COc1ccc(CN2C(=O)c3ccccc3C(/C=N\OCc3ccc(C)cc3)C2=O)cc1 (stereo unspecified),,inconclusive: 16.6%
57,COc1cc(OC)cc(C(=O)N2CCN(C(=O)c3ccc(OC)c(OC)c3)CC2)c1,,inactive: 9.39%
58,COc1ccc(-c2nc(CS(=O)(=O)CC(=O)NCCc3ccccc3)c(C)o2)cc1,,inconclusive: 8.18%
59,O=C(Cc1cccs1)NNC(=S)NCc1ccco1,,inactive: -2.24%
60,O=C(O)c1ccc(NCc2ccncc2)cc1,,inactive: 0.919%
61,[O-][n+]1c2ccccc2cc2ccccc21,"inconclusive: 20.6 µM [falling, partial curve]",
62,CS(=O)(=O)c1cccc(C(=O)OCC(=O)Nc2ccc3c(c2)OCO3)c1,,inconclusive: -6.13%

Further entries follow:

Row | SMILES | Potency | activity change, negative = inhibition
64 | CC(C)NC(=NCc1ccc(Cl)cc1Cl)Nc1ccccc1 |  | inconclusive: -0.542%
65 | Cc1ccc(CCCOC(=O)C[N+]2(C)CCCC2)cc1 |  | inconclusive: 0.421%
66 | COCc1ccc(-c2c(-c3ccc(OC)cc3)oc(=O)c3cc(OC)c(OC)cc23)cc1 |  | inconclusive: 0.194%
67 | CC[C@]1(c2cccc(C)c2)C(=O)N(C(=O)OC)N1C(=O)OC |  | inactive: 8.61%
68 | CC(C)C1=CC(=Nc2ccc(S(N)(=O)=O)cc2)C=C(C(C)C)C1=O | inconclusive: 28.2 µM [falling, single point] | 
69 | Cn1cc(C(=O)NCc2ccccc2)c(=O)c2cc(S(=O)(=O)N3CCCCCC3)ccc21 |  | inactive: 5.51%
70 | COC(=O)c1sc(-c2cccs2)cc1NC(=O)/C=C/C(=O)O |  | inconclusive: 12.8%
71 | CC(=O)c1noc(C)c1C(=O)Nc1nccs1 |  | inconclusive: 22.1%
72 | CCOC(=O)C1=C(CNCCc2ccc(Cl)cc2)NC(=O)NC1c1ccc2c(c1)OCO2 (stereo unspecified) |  | inconclusive: -29.7%
73 | O=C(NCC1CCCO1)c1cc(-c2ccco2)nc2ccccc12 (stereo unspecified) |  | inactive: 3.81%
74 | O=C1c2ccccc2-c2nnc(-c3ccc(O)cc3)cc21 | inconclusive: 8.91 µM [falling, partial curve] | 
75 | COc1cc(OC)c2c(-c3cccc(/C=C/c4ccc(F)cc4)c3)cc(=O)oc2c1 |  | inconclusive: 1.27%
76 | Cc1cc(O)c(-c2cc(O)c(C)cc2O)cc1O | inconclusive: 35.5 µM [rising, single point] | 
77 | N#Cc1c(NC(=O)C2CC2)sc2c1CCCCC2 |  | inactive: -0.495%
78 | C/C(Cn1nnc([N+](=O)[O-])n1)=N\NC(=O)c1ccccc1O | inconclusive: 5.62 µM [rising, single point] | 
79 | O=C(OCCOc1cccc(Cl)c1)c1ccc2ncsc2c1 | inconclusive: 15.8 µM [falling, single point] | 
80 | CN(C)CC(=O)Nc1cc(C(F)(F)F)ccc1Cl |  | inactive: 25.3%
81 | Cc1ccc(NC(=O)C2CCN(S(=O)(=O)c3ccc(N4CCCC4=O)cc3)CC2)cc1Cl |  | inactive: 9.26%
